This passage reports binding results from paper doi:10.1101/2024.04.03.587821.

Protein sequences, listed by entry. Tags and fused reporters are not part of them.
UniProt Q15154: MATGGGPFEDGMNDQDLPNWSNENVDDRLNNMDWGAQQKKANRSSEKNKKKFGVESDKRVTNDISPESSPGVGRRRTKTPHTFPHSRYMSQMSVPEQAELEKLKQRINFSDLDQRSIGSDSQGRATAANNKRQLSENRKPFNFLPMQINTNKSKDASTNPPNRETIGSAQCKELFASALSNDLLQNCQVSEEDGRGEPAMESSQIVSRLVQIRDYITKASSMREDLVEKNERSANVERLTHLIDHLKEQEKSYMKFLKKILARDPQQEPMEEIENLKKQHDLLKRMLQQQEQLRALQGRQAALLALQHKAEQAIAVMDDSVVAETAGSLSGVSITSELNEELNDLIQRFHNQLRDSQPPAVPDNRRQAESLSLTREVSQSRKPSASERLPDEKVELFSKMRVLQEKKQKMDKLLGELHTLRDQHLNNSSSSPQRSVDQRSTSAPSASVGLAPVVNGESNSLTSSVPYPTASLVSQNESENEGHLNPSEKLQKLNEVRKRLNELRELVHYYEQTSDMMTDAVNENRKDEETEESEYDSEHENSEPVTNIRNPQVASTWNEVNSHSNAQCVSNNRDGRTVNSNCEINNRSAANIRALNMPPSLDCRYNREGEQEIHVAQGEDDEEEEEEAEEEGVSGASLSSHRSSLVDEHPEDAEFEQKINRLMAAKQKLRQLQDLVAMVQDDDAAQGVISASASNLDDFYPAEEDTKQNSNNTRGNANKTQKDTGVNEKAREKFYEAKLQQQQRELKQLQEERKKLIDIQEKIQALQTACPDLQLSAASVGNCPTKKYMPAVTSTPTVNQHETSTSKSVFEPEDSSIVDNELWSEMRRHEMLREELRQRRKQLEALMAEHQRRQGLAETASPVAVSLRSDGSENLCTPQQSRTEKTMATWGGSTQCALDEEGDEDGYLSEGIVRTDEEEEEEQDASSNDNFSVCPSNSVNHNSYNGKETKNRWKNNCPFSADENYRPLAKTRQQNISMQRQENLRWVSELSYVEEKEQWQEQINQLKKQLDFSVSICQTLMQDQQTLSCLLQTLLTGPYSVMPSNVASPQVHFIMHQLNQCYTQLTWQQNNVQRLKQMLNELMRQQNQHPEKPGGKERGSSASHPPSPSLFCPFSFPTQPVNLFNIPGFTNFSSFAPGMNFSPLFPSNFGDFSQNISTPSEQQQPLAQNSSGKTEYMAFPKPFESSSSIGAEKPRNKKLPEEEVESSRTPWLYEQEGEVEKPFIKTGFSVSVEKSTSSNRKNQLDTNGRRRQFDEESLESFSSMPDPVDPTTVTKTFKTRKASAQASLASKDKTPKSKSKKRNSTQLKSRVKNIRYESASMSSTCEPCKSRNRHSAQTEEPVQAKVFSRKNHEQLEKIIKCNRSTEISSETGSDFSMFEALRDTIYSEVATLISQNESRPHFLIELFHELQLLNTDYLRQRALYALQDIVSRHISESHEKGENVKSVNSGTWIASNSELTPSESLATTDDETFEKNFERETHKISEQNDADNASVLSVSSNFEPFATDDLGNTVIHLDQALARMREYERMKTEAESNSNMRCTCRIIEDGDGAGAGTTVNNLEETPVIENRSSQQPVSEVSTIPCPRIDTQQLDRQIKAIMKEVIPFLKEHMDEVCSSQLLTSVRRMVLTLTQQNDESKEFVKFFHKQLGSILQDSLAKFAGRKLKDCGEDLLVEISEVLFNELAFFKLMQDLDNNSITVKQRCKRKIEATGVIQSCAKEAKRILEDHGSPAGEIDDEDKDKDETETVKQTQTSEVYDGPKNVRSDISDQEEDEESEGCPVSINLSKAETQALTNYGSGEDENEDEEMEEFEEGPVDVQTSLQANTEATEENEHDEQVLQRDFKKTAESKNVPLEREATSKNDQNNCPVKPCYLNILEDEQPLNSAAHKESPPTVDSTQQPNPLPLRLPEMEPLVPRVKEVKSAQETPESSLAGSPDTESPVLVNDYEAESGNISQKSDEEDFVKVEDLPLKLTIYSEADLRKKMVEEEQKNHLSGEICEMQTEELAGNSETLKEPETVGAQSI

No constants are given. Whether binding was seen depends on the method and setting. For some assays here: In cells and extracts the contact can be indirect. Some entries that bind do so weakly or less than the wild type. Where a sequence is shown, tags or fusion partners need not be part of it.

For assay [1], the target named is T1, eGFP-FKBP-Kif9 (relocalizable form of Kif9) (human) (UniProt Q9HAQ2).
T1 sequence: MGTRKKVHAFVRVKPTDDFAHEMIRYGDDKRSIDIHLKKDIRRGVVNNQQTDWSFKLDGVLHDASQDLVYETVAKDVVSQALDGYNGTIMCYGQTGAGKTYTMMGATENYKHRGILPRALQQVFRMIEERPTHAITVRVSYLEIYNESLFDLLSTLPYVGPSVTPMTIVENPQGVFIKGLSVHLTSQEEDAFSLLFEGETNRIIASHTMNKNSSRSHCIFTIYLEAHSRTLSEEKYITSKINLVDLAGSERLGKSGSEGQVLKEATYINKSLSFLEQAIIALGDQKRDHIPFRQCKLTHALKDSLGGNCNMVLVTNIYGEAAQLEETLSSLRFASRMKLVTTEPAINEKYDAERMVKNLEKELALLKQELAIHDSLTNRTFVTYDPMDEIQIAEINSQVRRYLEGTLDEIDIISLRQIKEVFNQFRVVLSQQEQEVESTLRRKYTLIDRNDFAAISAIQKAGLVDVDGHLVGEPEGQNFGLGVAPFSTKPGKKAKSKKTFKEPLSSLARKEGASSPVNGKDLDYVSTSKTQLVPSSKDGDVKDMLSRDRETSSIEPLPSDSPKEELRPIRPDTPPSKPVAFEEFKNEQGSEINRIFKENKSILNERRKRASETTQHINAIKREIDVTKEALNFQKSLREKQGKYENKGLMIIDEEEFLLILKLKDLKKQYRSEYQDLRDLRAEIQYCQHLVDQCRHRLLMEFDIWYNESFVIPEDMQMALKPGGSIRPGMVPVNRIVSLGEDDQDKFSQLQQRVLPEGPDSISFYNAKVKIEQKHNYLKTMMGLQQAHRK
The assay is described as follows: knock-sideways relocalisation.

Assay [2] has as its target T2, eGFP-Kif9 (HeLa cells transfected with the eGFP-Kif9 plasmid) (human) (UniProt Q9HAQ2).
T2 sequence: T1 sequence
The assay is described as follows: co-IP.

Regarding “PCM1 (endogenous, HeLa) (from UniProt Q15154 1-2024)”, the binding result in assay [1] and in assay [2] was “binds” in each case.
